Measured values published in PubChem BioAssay AID278 (DTP/NCI, 2004).
Several values for one entry are separate records, joined by “and”; a condition that tells them apart may be missing. Equal entries are not always repeated. Records with an inconclusive call do not appear.

Tested on: nude mice, A549 intrarenal xenograft, tumor weight change
Experiment: NCI In Vivo Anticancer Drug Screen. Data for tumor model A549 Human Adenocarcinoma of Lung with characteristics of Type II Alveolar Epithelial cells (intrarenal inoculation) in NU/NU BALB/C (nude) mice
Conditions: endpoint: mean tumor weight change, schedule: Q04DX003 (ip), vehicle: Klucel (hydroxypropylcellulose) (HPC), higher = larger tumour
Procedure: The antitumor activity of compounds was measured in mice bearing transplantable tumors. Survival or tumor size were measured and the results are expressed as the measurement made in the treated group (T) divided by the measurement made in the vehicle treated control group (C). The tumor model used in this assay is A549 Human Adenocarcinoma of Lung with characteristics of Type II Alveolar Epithelial cells (intrarenal inoculation) in NU/NU BALB/C (nude) mice

| SMILES | T/C (dose: 1.0 mg/kg/injection) | T/C (dose: 2.0 mg/kg/injection) | T/C (dose: 4.0 mg/kg/injection) | T/C (dose: 8.0 mg/kg/injection) | T/C (dose: 4.32 mg/kg/injection) | T/C (dose: 5.0 mg/kg/injection) | T/C (dose: 7.2 mg/kg/injection) | T/C (dose: 12.0 mg/kg/injection) |
| --- | --- | --- | --- | --- | --- | --- | --- | --- |
| CCOC(=O)NC1CCc2cc(OC)c(OC)c(OC)c2-c2ccc(OC)c(=O)cc21 (stereo not drawn) | 74 % of control | 62 % of control | 14 % of control | 31 % of control | – | – | – | – |
| COc1c(O)cc2c(c1OC)-c1ccc(SC)c(=O)cc1C(NC(C)=O)CC2 (stereo not drawn) | – | – | – | – | 2 % of control | 12 % of control and 25 % of control | 63 % of control | 20 % of control and 43 % of control |
